Source: patent US9880151B2, “Method of determining, identifying or isolating cell-penetrating peptides” (Phylogica Limited, priority 2011, dated 2018)
Some entries share one result that the patent states for a list of compounds.

Test system: CHO-K1 cells
Assay: Flow cytometry analysis of FITC-labelled peptide cell binding/uptake
Assay type: cell-based, Chinese hamster
Conditions: 30 μM CPP, 37° C. and 4° C., with DMSO (FIG. 35)
Procedure: CHO-K1 and bEnd.3 cells were seeded in 6-well plates at 5×10^5 cells/well in culture medium and incubated for 24 h at 37° C. in 5% CO2. Culture media was aspirated, and cells washed once with PBS to remove debris. Then, 1 mL of media containing 10 or 20 μM of FITC-peptide was added to wells, and plates were incubated for 1 h at 37° C. in 5% CO2. The cells were washed twice with 1×PBS, and 1 mL of 0.25% trypsin/EDTA added per well, and incubated at 37° C. for 4 min. Reactions were stopped by dilution of trypsin with 2 mL complete media. Cells were dislodged by gentle titration and transferred to flow cytometry tubes, washed twice with FACS buffer (0.5% BSA/0.01% NaN3/PBS), collected by centrifugation for 4 min at 1500 rpm, and resuspended in 0.3 mL fixing buffer solution (1% formaldehyde in PBS). Cells were filtered through gauze before reading on BD LSRII flow cytometer. […]
The flow cytometry procedure was initially optimized using fluorophore-labelled TAT-PYC38. Subsequently, FITC-labelled peptides from the Phase 1-Pilot and Phase 2-CPP screens were assessed at 10 μM concentrations for internalization using CHO and bEnd3 cells. Peptides that scored as positive in the cell binding/internalization assay were subjected to further analysis using different temperatures and cell lines to determine cell selectivity. […]

5008 (PYSRPHVQLWYPNRESCRSLIRSLGP) [compound 5008]
cellular uptake into CHO-K1, FITC and Propidium Iodide staining: greater than 40%

4052 (WGCCGRSSRRRRTR) [compound 4052]
cellular uptake into CHO-K1, FITC and Propidium Iodide staining: greater than 40%
